From paper PMC9359993
Results are given in words; binding and its absence hold for the method and conditions named. For some assays here: Binding calls can cover weak binding; strength is not graded here. Each block holds one molecule with its values, some of them ahead of it.

Legend:
spe-39 (C. elegans) = biological target: T1, spe-39 (C. elegans) (UniProt Q23288); assay: two-hybrid; yeast two-hybrid, growth graded; snx-6 as prey, FERARI subunits as bait; n = 3 growth experiments with n = 6 independent yeast colonies each
T1 sequence: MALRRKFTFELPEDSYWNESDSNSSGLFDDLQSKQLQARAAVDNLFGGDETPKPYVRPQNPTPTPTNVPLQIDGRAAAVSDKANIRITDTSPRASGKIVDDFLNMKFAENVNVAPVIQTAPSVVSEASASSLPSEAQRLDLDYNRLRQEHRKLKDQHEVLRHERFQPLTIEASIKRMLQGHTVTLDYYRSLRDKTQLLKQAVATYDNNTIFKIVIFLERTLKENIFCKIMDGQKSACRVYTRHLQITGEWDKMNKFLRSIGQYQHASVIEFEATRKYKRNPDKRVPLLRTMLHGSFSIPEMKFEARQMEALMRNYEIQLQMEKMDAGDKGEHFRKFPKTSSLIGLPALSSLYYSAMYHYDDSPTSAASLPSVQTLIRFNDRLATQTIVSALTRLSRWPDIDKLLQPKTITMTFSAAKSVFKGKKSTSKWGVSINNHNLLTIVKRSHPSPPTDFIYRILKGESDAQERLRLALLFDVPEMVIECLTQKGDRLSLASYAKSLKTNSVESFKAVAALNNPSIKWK

RABS-5 (C. elegans) = assay: two-hybrid; yeast two-hybrid of Rab GTPases with FERARI members (Supplementary Fig. 5b); bait and prey not told

binding (spe-39 (C. elegans)): no binding
Molecule: C. elegans SNX6

binding (RABS-5 (C. elegans)): binds
B1: Rab10 (protein, UniProt Q94148 1-201)
chain: MARRPYDMLFKLLLIGDSGVGKTCILYRFSDDAFNTTFISTIGIDFKIKTIELKGKKIKLQIWDTAGQERFHTITTSYYRGAMGIMLVYDITNAKSFDNIAKWLRNIDEHASEDVVKMILGNKCDMSDRRVVSRERGEKIAQDHGISFHETSAKLNVHVDTAFYDLAEAILAKMPDSTDEQSRDTVNPVQPQRQSSSGGCC
